Values from PubChem BioAssay AID1159578 (Peter MacCallum Cancer Centre, 2015)
This is an unselected part of about 18,000 reagents. Over the whole deposit, about 1,030 (5.7%) were called active. 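Inactive calls also include pools with fewer than 3300 nuclei, whose migration was not assessed.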 The raw values are shown without normalisation. Not all columns of the deposit are shown. No sequences are given here.

Assay: 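Genome-wide hunt for genes controlling movement of lymphatic endothelial cells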 (primary screen)
Cells: human lymphatic endothelial cells
Knock-down reagent: siRNA pool against human genes, 40 nM
Time to read-out: 48 h after transfection
Read-out: 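Cells stained with dye and imaged after a scratch; covered wound area and nuclei counted, duplicates averaged, migration set against mock wells and turned into a robust z-score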
Reading the numbers: migration robust z-score: higher = faster migration into the scratch; nuclei per well: higher = more cells in the well
Rule for the call: 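Pools averaging fewer than 3300 nuclei are never called; remaining pools count as changed when migration robust z lies outside -2 to 2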
Meaning of the calls: active = migration changed; inactive = no migration change, or too few cells

gene | migration robust z-score | nuclei per well, duplicate mean | Call
SIGLEC8 (sialic acid binding Ig like lectin 8) | -0.57 | 7098 | inactive
IFI16 (interferon gamma inducible protein 16) | -1.09 | 5329 | inactive
ZNF182 (zinc finger protein 182) | -0.84 | 6052 | inactive
SDHD (succinate dehydrogenase complex subunit D) | -0.47 | 5380 | inactive
RFC5 (replication factor C subunit 5) | -0.47 | 5122 | inactive
UBR5 (ubiquitin protein ligase E3 component n-recognin 5) | 1.4 | 5220 | inactive
CDC123 (cell division cycle 123) | -0.7 | 5146 | inactive
PROCA1 (protein interacting with cyclin A1) | -0.26 | 5937 | inactive
HHIPL1 (HHIP like 1) | 0.65 | 6784 | inactive
SCN8A (sodium voltage-gated channel alpha subunit 8) | 0.44 | 4786 | inactive
SORCS2 (sortilin related VPS10 domain containing receptor 2) | -0.76 | 5891 | inactive
OAZ1 (ornithine decarboxylase antizyme 1) | -0.78 | 5982 | inactive
SVIL (supervillin) | 0.36 | 5777 | inactive
TRIM51 (tripartite motif-containing 51) | 0.52 | 5912 | inactive
SOD1 (superoxide dismutase 1) | -2.02 | 3938 | active
TSPAN1 (tetraspanin 1) | 1.68 | 5284 | inactive
NOMO1 (NODAL modulator 1) | 0.32 | 5953 | inactive
TMEM14B (transmembrane protein 14B) | -0.55 | 4872 | inactive
CALCOCO2 (calcium binding and coiled-coil domain 2) | 0.36 | 5414 | inactive
GPR83 (G protein-coupled receptor 83) | 1.53 | 6529 | inactive
C1orf141 (chromosome 1 open reading frame 141) | 2.12 | 7215 | active

5 entries from above, reformatted.
gene,migration robust z-score,"nuclei per well, duplicate mean",Call
TRIM51 (tripartite motif-containing 51),0.52,5912,inactive
SOD1 (superoxide dismutase 1),-2.02,3938,active
TSPAN1 (tetraspanin 1),1.68,5284,inactive
NOMO1 (NODAL modulator 1),0.32,5953,inactive
TMEM14B (transmembrane protein 14B),-0.55,4872,inactive

The results go on.
gene | migration robust z-score | nuclei per well, duplicate mean | Call
SLC4A1 | 0.73 | 5830 | inactive
TAC3 (tachykinin precursor 3) | 0.28 | 6886 | inactive
SARS2 (seryl-tRNA synthetase 2, mitochondrial) | -0.24 | 3920 | inactive
GPAT3 (glycerol-3-phosphate acyltransferase 3) | 0.21 | 5620 | inactive
GTF2IRD2 (GTF2I repeat domain containing 2) | -0.51 | 6024 | inactive
ZNF324 (zinc finger protein 324) | -0.76 | 5569 | inactive
BMP3 (bone morphogenetic protein 3) | -0.36 | 6116 | inactive
UHRF1 (ubiquitin like with PHD and ring finger domains 1) | 0.52 | 6521 | inactive
EIF5B (eukaryotic translation initiation factor 5B) | -0.68 | 5492 | inactive
MAGEA5P (MAGE family member A5, pseudogene) | 2.06 | 5430 | active
DRC2 (dynein regulatory complex subunit 2) | 2.27 | 6906 | active
HINFP (histone H4 transcription factor) | 1.06 | 6132 | inactive
PLB1 (phospholipase B1) | -3.84 | 4968 | active
MAEL (maelstrom spermatogenic transposon silencer) | -0.67 | 3880 | inactive
SPANXN2 (SPANX family member N2) | 0.2 | 5369 | inactive
TUBGCP3 (tubulin gamma complex component 3) | -0.45 | 5685 | inactive
FXN (frataxin) | -0.2 | 6947 | inactive
CASP1 (caspase 1) | 0.13 | 4482 | inactive
